Experimental data taken from PubChem BioAssay AID1511 (Johns Hopkins Ion Channel Center, 2009).
The list shows a part of the results, in another mix than the full data. Calls of active or inactive are those of the source.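 How the source made its calls: active means activation above the mean of controls blocked by dofetilide plus 5 SD; inactive means the rest.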

By UniProt entry, the sequences of proteins in these tests, tags left out. Where a name states a change or a piece, a line headed by the entry shows the natural chain unless it says otherwise.
UniProt Q12809: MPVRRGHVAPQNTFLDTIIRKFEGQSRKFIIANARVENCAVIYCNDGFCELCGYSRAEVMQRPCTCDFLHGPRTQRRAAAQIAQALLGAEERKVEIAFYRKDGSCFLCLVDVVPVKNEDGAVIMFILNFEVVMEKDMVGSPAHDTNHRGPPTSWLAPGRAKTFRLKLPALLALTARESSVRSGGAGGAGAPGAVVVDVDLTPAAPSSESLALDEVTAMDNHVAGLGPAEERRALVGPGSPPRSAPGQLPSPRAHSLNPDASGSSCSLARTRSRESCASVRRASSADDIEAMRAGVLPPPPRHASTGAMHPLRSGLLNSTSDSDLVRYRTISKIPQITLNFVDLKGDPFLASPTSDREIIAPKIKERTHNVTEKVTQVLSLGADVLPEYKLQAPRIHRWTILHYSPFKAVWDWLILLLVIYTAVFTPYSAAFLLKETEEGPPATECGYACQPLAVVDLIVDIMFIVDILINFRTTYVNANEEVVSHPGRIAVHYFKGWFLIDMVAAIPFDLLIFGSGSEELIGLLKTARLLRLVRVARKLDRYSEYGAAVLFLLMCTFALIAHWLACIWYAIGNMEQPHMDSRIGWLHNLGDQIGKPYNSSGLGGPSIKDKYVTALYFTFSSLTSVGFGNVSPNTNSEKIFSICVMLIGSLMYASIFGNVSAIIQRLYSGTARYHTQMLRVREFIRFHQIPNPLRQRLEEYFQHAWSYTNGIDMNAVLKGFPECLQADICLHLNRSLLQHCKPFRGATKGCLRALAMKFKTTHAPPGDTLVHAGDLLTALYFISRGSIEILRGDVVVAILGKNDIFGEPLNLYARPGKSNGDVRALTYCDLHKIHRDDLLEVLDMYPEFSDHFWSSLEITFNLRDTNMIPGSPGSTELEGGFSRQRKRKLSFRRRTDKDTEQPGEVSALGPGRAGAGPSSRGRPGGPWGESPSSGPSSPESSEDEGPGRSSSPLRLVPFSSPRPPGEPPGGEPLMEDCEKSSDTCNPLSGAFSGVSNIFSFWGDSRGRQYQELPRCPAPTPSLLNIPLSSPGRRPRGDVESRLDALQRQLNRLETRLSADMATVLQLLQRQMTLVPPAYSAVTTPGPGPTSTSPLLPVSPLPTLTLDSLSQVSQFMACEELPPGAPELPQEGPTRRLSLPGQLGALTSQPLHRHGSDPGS

molecular target: Voltage-gated inwardly rectifying potassium channel KCNH2 (Homo sapiens) (UniProt Q12809); test: hERG rescue from dofetilide block, primary screen, cell-based, CHO-hERG, FluxOR thallium flux, dofetilide IC70 (AID 1511); settings: dofetilide IC70 present, at 10 µM, stronger effect = higher value;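 further: thallium influx through hERG after potassium depolarization seen as dye fluorescence rise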

SMILES | activation (rescue from dofetilide block), less the hit threshold
COC(=O)c1ccc(CNC(=O)CSc2nc3sc(C)c(C)c3c(=O)n2C)o1 | active: 5.08%
